No constants are given. Whether binding was seen depends on the method and setting. In cells and extracts the contact can be indirect. A yes stands for co-enrichment or nearness to the bait. Other partners may have been found. For part of these data: No binding means not detected with the bait. For part of these data: Sequences can lack the tags named with a protein.
T1: VIPP1-GFP (Vesicle Inducing Protein in Plastids 1 tagged by GFP at its C-terminus) (Arabidopsis thaliana) (UniProt O80796)
T1 sequence: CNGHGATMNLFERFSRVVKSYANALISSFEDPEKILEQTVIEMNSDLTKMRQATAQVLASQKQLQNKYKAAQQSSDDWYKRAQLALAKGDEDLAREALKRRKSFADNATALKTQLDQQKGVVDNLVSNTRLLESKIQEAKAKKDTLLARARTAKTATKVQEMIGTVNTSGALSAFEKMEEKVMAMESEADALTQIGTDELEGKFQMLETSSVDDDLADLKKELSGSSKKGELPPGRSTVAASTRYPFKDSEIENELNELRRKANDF

B1: MFP1 (protein, UniProt Q9LW85 96-726)
chain: DERGNEIKTSKVDLETEVAVVSEGTSPNPFLALLNGLGIFSAGVLGALYALARQDTKAAEETIESLKNQLKDRERALVLKEKDFEAKLQHEQEERKKEVEKAKEEQLSLINQLNSAKDLVTELGRELSSEKKLCEKLKDQIESLENSLSKAGEDKEALETKLREKLDLVEGLQDRINLLSLELKDSEEKAQRFNASLAKKEAELKELNSIYTQTSRDLAEAKLEIKQQKEELIRTQSELDSKNSAIEELNTRITTLVAEKESYIQKLDSISKDYSALKLTSETQAAADAELISRKEQEIQQLNENLDRALDDVNKSKDKVADLTEKYEDSKRMLDIELTTVKNLRHELEGTKKTLQASRDRVSDLETMLDESRALCSKLESELAIVHEEWKEAKERYERNLDAEKQKNEISASELALEKDLRRRVKDELEGVTHELKESSVKNQSLQKELVEIYKKVETSNKELEEEKKTVLSLNKEVKGMEKQILMEREARKSLETDLEEAVKSLDEMNKNTSILSRELEKVNTHASNLEDEKEVLQRSLGEAKNASKEAKENVEDAHILVMSLGKEREVLEKKVKKLEEDLGSAKGEILRMRSQPDSVKAVNSTDNKEKSDNTVTVKKVVRRRKSSTSS
B2: VPL3/VIA1 (At5g03900) (protein, UniProt Q8GW20 64-523)
chain: ASLDKVSGAIKPGGLVESDKLPTDVRKRAMDAVDECGRRVTVGDVASRGGLKVTEAQTALQAIAADTDGFLEVSDEGDVLYVFPRDYRTKLAAKSLRIQIEPFLEKAKGAVDYLARVSFGTALIASIVIVYTSIIALLSSKSEDDNRQRRRGRSYDSGFNFYINPVDLLWYWDPNYYNRRRAREDEGKGMNFIESVFSFVFGDGDPNQGIEEERWQMIGQYITSRGGVVAADELAPYLDVPSSKSAMNDESYILPVLLRFDGQPELDEEGNILYCFPSLQRTASGSSRRKEYVGKWFDWVADMEKFFKEKKWQFSKTSTSERALVIGLGAVNLFGVIVLNTLLNEMSVRPGGFLTFVKNIYPLLQIYAGSFFTIPLIRWFSIKRKNNQIENRNKARLQFARALESPDIALRRKLLSARDMAQKTVIGKDRIVYSTDRDMMEQNYETDEWDRRFKELEKSD
B3: cpHsc70-1 (chloroplast HSP70 isoform 1) (protein, UniProt Q9STW6 93-718)
chain: AAMEGGKPTIVTNAEGQRTTPSVVAYTKSGDRLVGQIAKRQAVVNPENTFFSVKRFIGRKMNEVDEESKQVSYRVVRDENNNVKLECPAINKQFAAEEISAQVLRKLVDDASRFLNDKVTKAVITVPAYFNDSQRTATKDAGRIAGLEVLRIINEPTAASLAYGFDRKANETILVFDLGGGTFDVSVLEVGDGVFEVLSTSGDTHLGGDDFDKRVVDWLAAEFKKDEGIDLLKDKQALQRLTEAAEKAKIELSSLTQTNMSLPFITATADGPKHIETTLTRAKFEELCSDLLDRVRTPVENSLRDAKLSFKDIDEVILVGGSTRIPAVQELVRKVTGKEPNVTVNPDEVVALGAAVQAGVLAGDVSDIVLLDVTPLSIGLETLGGVMTKIIPRNTTLPTSKSEVFSTAADGQTSVEINVLQGEREFVRDNKSLGSFRLDGIPPAPRGVPQIEVKFDIDANGILSVSAVDKGTGKKQDITITGASTLPKDEVDQMVQEAERFAKDDKEKRDAIDTKNQADSVVYQTEKQLKELGEKIPGEVKEKVEAKLQELKDKIGSGSTQEIKDAMAALNQEVMQIGQSLYNQPGAGGPGAGPSPGGEGASSGDSSSSKGGDGDDVIDADFTDSQ
B4: lipoxygenase 2 (LOX2) (enzyme, UniProt P38418 57-896)
chain: ANIEQEGNTVKEPIQNIKVKGYITAQEEFLEGITWSRGLDDIADIRGRSLLVELISAKTDQRITVEDYAQRVWAEAPDEKYECEFEMPEDFGPVGAIKIQNQYHRQLFLKGVELKLPGGSITFTCESWVAPKSVDPTKRIFFSDKSYLPSQTPEPLKKYRKEELETLQGKNREEVGEFTKFERIYDYDVYNDVGDPDNDPELARPVIGGLTHPYPRRCKTGRKPCETDPSSEQRYGGEFYVPRDEEFSTAKGTSFTGKAVLAALPSIFPQIESVLLSPQEPFPHFKAIQNLFEEGIQLPKDAGLLPLLPRIIKALGEAQDDILQFDAPVLINRDRFSWLRDDEFARQTLAGLNPYSIQLVEEWPLISKLDPAVYGDPTSLITWEIVEREVKGNMTVDEALKNKRLFVLDYHDLLLPYVNKVRELNNTTLYASRTLFFLSDDSTLRPVAIELTCPPNINKPQWKQVFTPGYDATSCWLWNLAKTHAISHDAGYHQLISHWLRTHACTEPYIIAANRQLSAMHPIYRLLHPHFRYTMEINARARQSLVNGGGIIETCFWPGKYALELSSAVYGKLWRFDQEGLPADLIKRGLAEEDKTAEHGVRLTIPDYPFANDGLILWDAIKEWVTDYVKHYYPDEELITSDEELQGWWSEVRNIGHGDKKDEPWWPVLKTQDDLIGVVTTIAWVTSGHHAAVNFGQYGYGGYFPNRPTTTRIRMPTEDPTDEALKEFYESPEKVLLKTYPSQKQATLVMVTLDLLSTHSPDEEYIGEQQEASWANEPVINAAFERFKGKLQYLEGVIDERNVNITLKNRAGAGVVKYELLKPTSEHGVTGMGVPYSISI

These binders were tested against T1, VIPP1-GFP (Vesicle Inducing Protein in Plastids 1 tagged by GFP at its C-terminus) (Arabidopsis thaliana) (assay: affinity purification with mass spectrometry).
B1 was tested, and the binding was “binds”.
With B2 the binding was “binds”.
With B3 the binding was “binds”.
For B4, the binding was “binds”.

The binders below were run against VIPP1-His (VIPP1 C-terminally tagged by 6xHis) (Arabidopsis thaliana) (UniProt O80796) (assay: affinity purification with mass spectrometry).
B1 was tested, and the binding was “binds”.
B3 was tested, and the binding was “binds”.

What follows are binders tested against VIPP1ΔC-GFP (VIPP1 lacking Vc, tagged by GFP at its C-terminus) (Arabidopsis thaliana) (assay: affinity purification with mass spectrometry).
With B1 the binding was “no binding”.
In the case of B2, the binding is reported as “binds”.
B4 was tested, and the binding was “binds”.
